# Hit rate of the full screen: of about 2,400 compounds, about 20 (0.8%) were called active. The shares of active, inactive and inconclusive entries below differ from those in the screen.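 Rule for the calls: active = fitted half-maximal concentration for signal decrease at or below twice the top tested dose, in every repeat run; inconclusive = repeat runs disagree, or flat partial inhibition, or poor fit; inactive = all runs flat, wrong-direction or potency beyond limit.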
# Experiment: GFP reporter loss versus dox-driven RFP – NIH3T3 R4 cells, cherry-pick, set 4, dose response (AID 588827);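 note: 0% = neutral control wells and -100% = didemnin B at 400 nM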
# Conditions: NIH3T3 R4 HSF-1 GFP reporter, heat shock, 48 h; at 19.5 µM (top of the series) unless noted
row,Compound,"activity change, negative = inhibition"
1,COc1cc(N2N=C(c3ccccc3)CC2c2ccccc2)c(C=O)cc1C=O (configuration not stated),inconclusive: -6.9%
2,COc1cc(NC(=O)c2cc(C)nc3ccccc23)cc(OC)c1,inactive: -25.1%
3,COc1ccc(NC(=O)CN(C)S(=O)(=O)c2ccc3c(c2)CCC(=O)N3)c(OC)c1,inconclusive: -6.4%
4,CNC(=O)Cn1nc(C)c2ccccc2c1=O,inconclusive: 6.08%
5,OCCCNc1nccc(-c2cc(Nc3cccc(Cl)c3)ncn2)n1,inconclusive: -51.9%
6,O=C(CSC(=S)N1CCCCC1)Nc1ncc2c(n1)CCCC2=O,inactive: -1.31%
7,Cc1ccc2nc(-c3ccccc3NC(=O)CCC(=O)O)c(=O)[nH]c2c1,inactive: 11.3%
8,CSc1ncccc1C(=O)N1CCCC(N2CCN(c3ccccc3F)CC2)C1 (configuration not stated),inactive: 6.57%
9,O=C(CN1C(=O)c2ccccc2S1(=O)=O)c1ccc2c(c1)OCCO2,inconclusive: 33.5%
10,CN(C(=O)OC(C)(C)C)c1ccc(-c2nc3ccccc3s2)cc1,inconclusive: -26%
11,CCN(CC)S(=O)(=O)c1cccc(NC(=O)CCNC(=O)NC23CC4CC(CC(C4)C2)C3)c1,inactive: -25.2%
12,O=C(Nc1cccc(Cl)c1)N1CCOCC1,inactive: -24.5%
13,CC(C)(C)C(=O)OCc1nc(-c2ccc3c(c2)OCCO3)cs1,inactive: 9.21%
14,CCN1/C(=C(\O)c2ccccc2)C(=O)c2ccccc2S1(=O)=O,inconclusive: -23.6%
15,CCC(=O)Nc1ccc2nc(C3CC3)n(Cc3ccc(C(C)(C)C)cc3)c(=O)c2c1,inconclusive: -36.9%
16,COc1ccc(C(CCN(Cc2ccc(OC)c(OC)c2)C(=O)CCl)c2ccccc2)cc1 (configuration not stated),inconclusive: -28.1%
17,S=C1Cc2ccccc2N1,inconclusive: -37.1%
18,Cc1[nH]c2ccc(-c3nnc(SCC(=O)c4ccc(F)cc4)o3)cc2c1C,inconclusive: -13.6%
19,COc1ccc(Nc2nc(Nc3ccc(OC)cc3)nc(-n3[nH]c(=O)c(C)c3C)n2)cc1,inconclusive: 8.07%
20,COc1ccc(CNC(=O)OCCN2CCN(S(=O)(=O)c3ccc(C)cc3)CCC2=O)cc1,inconclusive: -10.9%
21,Cc1ccnc(NC(c2ccsc2)c2ccc3ccc(C)nc3c2O)c1 (configuration not stated),inactive: 77.1%
22,COc1ccc2c(c1)sc1nc(-c3ccccc3)cn12,inconclusive: 0.486%

row,Compound,"activity change, negative = inhibition"
1,O=C(N/N=C/c1ccccc1Cl)c1n[nH]c2c1CCCC2,inconclusive: 4.05%
2,CN1CCN(C(=O)c2cc([N+](=O)[O-])cc([N+](=O)[O-])c2)CC1,inconclusive: -1%
3,Cc1cc(C)c2nc(C(F)(F)F)c(C#N)c(N)c2c1,inconclusive: -40%
4,Fc1ccccc1N1CCN(Cc2cc(-c3ccccc3)on2)CC1,inactive: -10.8%
5,Cc1cc(C)c2c(c1)/C(=N/NS(=O)(=O)c1ccc(Br)cc1)CCC2,inactive: -11.3%
6,O=C(O)CCSc1nnc(-c2ccc3c(c2)OCO3)o1,inactive: 1.52%
7,Cn1c2c(c(=O)n(C)c1=O)C(CC(=O)Nc1ccccc1)C(=O)N2 (configuration not stated),inconclusive: -8.18%
8,CN(C)c1ccc(CNc2ccc3c(c2)ncn3C(C)(C)C)cc1,inactive: -15.9%
9,Cc1ccc(CSCC(=O)N(C)CC(=O)Nc2ccc(C)cc2)cc1,inactive: -13.1%
10,CCOC(=O)C1=NOC2C3CC(C12)C1C(=O)N(CCc2ccc(OC)c(OC)c2)C(=O)C31 (configuration not stated),inconclusive: -7.51%
11,Cc1[nH]n(-c2ccccc2)c(=O)c1N=Nc1ccc2c(c1)OCO2,inconclusive: 6.75%
12,Fc1ccc(-c2cc(-c3ccccc3)nc(-n3cccn3)n2)cc1,inconclusive: -1.81%
13,Cc1cc(C)c(S(=O)(=O)Nc2ccc(N(C)C)cc2)c(C)c1-n1cnnn1,inconclusive: -15.4%
14,CCCOc1ccc(CC(=O)N/N=C\c2ccc(F)cc2)cc1,inconclusive: -21.6%
15,COc1c(N2CCN(C(=S)NC3CC4CCC3C4)C(C)C2)c(F)cc2c(=O)c(C(=O)O)cn(C3CC3)c12 (configuration not stated),inconclusive: -47.2%
16,CCC(NC(=S)NCc1ccccc1)C(=O)O (configuration not stated),inactive: 29.3%
17,Cc1ccc(OCC(=O)c2cc(C)n(-c3ccccc3)c2C)c([N+](=O)[O-])n1,inconclusive: -78.4%
18,Cc1cc(OCC(=O)NCCO)cc(C)c1Cl,inconclusive: -4.19%
19,CCS(=O)(=O)c1ncc(Cl)c(C(=O)Nc2ccc(C)cc2)n1,inconclusive: 11.8%
20,CC1CCN(S(=O)(=O)c2ccc(C(=O)Nc3nnc(-c4ccccn4)o3)cc2)CC1,inconclusive: -7.08%
21,O=C(O)c1ccc(NC2=C(Cl)C(=O)c3ccccc3C2=O)cc1,inconclusive: -58.2%
22,CCOC(=O)C1CCN(c2c(NCc3ccc(C(=O)Nc4ccc(C)cc4)cc3)c(=O)c2=O)CC1,inconclusive: 39.7%

row,Compound,"activity change, negative = inhibition"
1,COc1ccc2[nH]c(=O)c(CN(Cc3cccs3)S(=O)(=O)c3c(C)ccc4nsnc34)cc2c1,inconclusive: -46.8%
2,CCOc1cc2c(cc1OCC)C(c1ccc(OC)cc1)N(c1ccccc1)C(=O)C2 (configuration not stated),inconclusive: -11.1%
3,CCCCN(C(=O)COc1ccc(C)cc1OC)c1c(N)n(CCC)c(=O)[nH]c1=O,inactive: -8.36%
4,c1ccc(-c2cn3nc(-c4ccccc4)sc3n2)cc1,inconclusive: 10.3%
5,COc1ccc(N=C2SC(C(=O)N3CCN(c4ccccc4)CC3)CC(=O)N2C)cc1 (configuration not stated),inconclusive: -29.6%
6,COC(=O)c1ccc(CNC(=O)COC(=O)COc2ccc(OC)cc2)cc1,inconclusive: -15.9%
7,N#CC1=C(N)C(C#N)(C#N)C(c2cccnc2)C2CC(c3ccccc3)CC=C12 (configuration not stated),inconclusive: -55.3%
8,CCCCCCc1cc2cc(S(=O)(=O)c3ccc(F)c(Cl)c3)c(=O)oc2cc1O,inconclusive: -34.4%
9,O=C(Nc1ccccc1N1CCCC1)c1cccnc1Cl,inconclusive: -11.3%
10,O=C(Cc1ccccc1)Nc1cccc(N2C(=O)C=CC2=O)c1,inconclusive: 73.8%
11,N#CC1=C(N)Oc2cc(N)ccc2C1c1ccccc1Cl (configuration not stated),inactive: -13.4%
12,COc1ccc(NC(=S)Nc2ccc(F)cc2)c(OC)c1,inactive: -12.6%
13,O=C(Oc1ccccc1Cl)c1ccc(-n2cncn2)nc1,inactive: -8.84%
14,COc1ccc(Nc2nc(C)cc(C)c2C#N)cc1OC,inconclusive: 10.5%
15,O=C(Oc1c(CN2CCOCC2)cc(Cl)c2cccnc12)c1ccccc1Br,inconclusive: -0.778%
16,Cn1c(=O)c2c(nc(Oc3cccc(O)c3)n2C)n(C)c1=O,inactive: -12.2%
17,COc1c(CC=C(C)C)cc(C2CC(=O)c3c(O)cc(O)cc3O2)cc1CC=C(C)C (configuration not stated),inconclusive: -15.7%
18,COc1ccc2c(c1)c(CC(=O)Nc1nnc(C3CC3)s1)c(C)n2C(=O)c1ccc(Cl)cc1,inconclusive: -41.5%
19,c1ccc(OCCSc2nc3ccccc3o2)cc1,inactive: -18%
20,Cn1ccnc1Sc1cc(NCCCO)c([N+](=O)[O-])c2nonc12,inconclusive: 61.9% [at 10 µM]
21,O=C(CSc1nnc(COc2ccc3c(c2)CCCC3)o1)Nc1ccc(F)cc1,inconclusive: 0.842%
22,CCCCOc1ccc(N2CC(C(=O)NCCc3ccc(OC)c(OC)c3)CC2=O)cc1 (configuration not stated),inconclusive: -7.5%

row,Compound,"activity change, negative = inhibition"
1,CCOC(=O)c1c(N2CCCCC2)c2ccccc2[nH]c1=O,inconclusive: -20.2%
2,COC(=O)c1cc(S(=O)(=O)NCCc2ccccc2)c[nH]1,inactive: -14.9%
3,Cc1cc(C)nc(NNC2=CC(=[N+]3CCCCC3)CC(C)(C)C2)n1,inconclusive: -63.6%
4,O=C1CCC(=O)N1CNc1ccccn1,inconclusive: -21.2%
5,CN=C1S/C(=C\c2cc(C)n(-c3ccccc3F)c2C)C(=O)N1C,inconclusive: -51.1%
6,CCOC(=O)N1C(=O)[C@@](CC)(c2ccccc2)N1C(=O)OCC,inconclusive: 21.3%
7,CC1OC(Nc2cccc3ccccc23)C(O)C(O)C1O (configuration not stated),inconclusive: 15.5%
8,CC(=O)C1C(=O)c2c(cccc2[N+](=O)[O-])C1=Nc1ccc(S(N)(=O)=O)cc1 (configuration not stated),inactive: -10.1%
9,CCOC(=O)c1ccc(Oc2nc(NC)nc(Nc3ccccc3)n2)cc1,inconclusive: 2.82%
10,CCOC(=O)/C(=C\c1ccc([N+](=O)[O-])cc1)C(=O)c1cc(C(C)=O)c(Nc2ccccc2)s1,inconclusive: -55.2%
11,NS(=O)(=O)c1ccc(CCNC(=O)c2ccc(C#CC3(O)CCCCC3)cc2)cc1,inconclusive: -45.8%
12,CCC(=O)n1nc(-c2cccnc2)nc1NCc1cccs1,inconclusive: 40.5%
13,CN(C)c1ccc(/C=C2\SC(=O)N(CCc3nnc(N)s3)C2=O)cc1,inconclusive: 9.11%
14,O=C1C(Nc2ccccc2)=C/C(=N/S(=O)(=O)c2cccs2)c2ccccc21,inconclusive: -49.4%
15,O=C(CC1Nc2ccccc2NC1=O)Nc1ccccc1NC(=O)CC1Nc2ccccc2NC1=O (configuration not stated),inconclusive: -6.29%
16,O=C(COC(=O)/C=C/c1ccc(C(F)(F)F)cc1)NC1CC1,inconclusive: -4.08%
17,OCC[C@@H]1C[C@@H](O)[C@H](O)[C@@]2(Cc3ccccc3CO2)O1,inconclusive: -17.8%
18,Cc1ccc(NC(=O)c2cnc(N3CCN(c4ccccn4)CC3)c3ccccc23)c(Br)c1,inconclusive: -28.1%
19,CCCCOc1ccc(N=Cc2ccc[nH]2)cc1,inactive: -5.17%
20,COc1ccc(OC2C(=O)N(Cc3ccc4c(c3)OCO4)C2c2sccc2C)cc1 (configuration not stated),inconclusive: -19.6%
21,Cc1ccc2nc(CSc3nc(C)ccc3C#N)[nH]c2c1,inconclusive: 4.1%

# Structures from the list above that contain bromine (3):
row,Compound,"activity change, negative = inhibition"
5,Cc1cc(C)c2c(c1)/C(=N/NS(=O)(=O)c1ccc(Br)cc1)CCC2,inactive: -11.3%
15,O=C(Oc1c(CN2CCOCC2)cc(Cl)c2cccnc12)c1ccccc1Br,inconclusive: -0.778%
18,Cc1ccc(NC(=O)c2cnc(N3CCN(c4ccccn4)CC3)c3ccccc23)c(Br)c1,inconclusive: -28.1%
